Assay results as given in paper PMC6755991.
Results are given in words; binding and its absence hold for the method and conditions named. Binding seen in cells or lysates may run through a third protein. Some entries that bind do so weakly or less than the wild type.

Sequences of proteins named here, by UniProt entry; tags and fusion partners are left off. Residues count along the entry.
UniProt P08069, residues 31-1367: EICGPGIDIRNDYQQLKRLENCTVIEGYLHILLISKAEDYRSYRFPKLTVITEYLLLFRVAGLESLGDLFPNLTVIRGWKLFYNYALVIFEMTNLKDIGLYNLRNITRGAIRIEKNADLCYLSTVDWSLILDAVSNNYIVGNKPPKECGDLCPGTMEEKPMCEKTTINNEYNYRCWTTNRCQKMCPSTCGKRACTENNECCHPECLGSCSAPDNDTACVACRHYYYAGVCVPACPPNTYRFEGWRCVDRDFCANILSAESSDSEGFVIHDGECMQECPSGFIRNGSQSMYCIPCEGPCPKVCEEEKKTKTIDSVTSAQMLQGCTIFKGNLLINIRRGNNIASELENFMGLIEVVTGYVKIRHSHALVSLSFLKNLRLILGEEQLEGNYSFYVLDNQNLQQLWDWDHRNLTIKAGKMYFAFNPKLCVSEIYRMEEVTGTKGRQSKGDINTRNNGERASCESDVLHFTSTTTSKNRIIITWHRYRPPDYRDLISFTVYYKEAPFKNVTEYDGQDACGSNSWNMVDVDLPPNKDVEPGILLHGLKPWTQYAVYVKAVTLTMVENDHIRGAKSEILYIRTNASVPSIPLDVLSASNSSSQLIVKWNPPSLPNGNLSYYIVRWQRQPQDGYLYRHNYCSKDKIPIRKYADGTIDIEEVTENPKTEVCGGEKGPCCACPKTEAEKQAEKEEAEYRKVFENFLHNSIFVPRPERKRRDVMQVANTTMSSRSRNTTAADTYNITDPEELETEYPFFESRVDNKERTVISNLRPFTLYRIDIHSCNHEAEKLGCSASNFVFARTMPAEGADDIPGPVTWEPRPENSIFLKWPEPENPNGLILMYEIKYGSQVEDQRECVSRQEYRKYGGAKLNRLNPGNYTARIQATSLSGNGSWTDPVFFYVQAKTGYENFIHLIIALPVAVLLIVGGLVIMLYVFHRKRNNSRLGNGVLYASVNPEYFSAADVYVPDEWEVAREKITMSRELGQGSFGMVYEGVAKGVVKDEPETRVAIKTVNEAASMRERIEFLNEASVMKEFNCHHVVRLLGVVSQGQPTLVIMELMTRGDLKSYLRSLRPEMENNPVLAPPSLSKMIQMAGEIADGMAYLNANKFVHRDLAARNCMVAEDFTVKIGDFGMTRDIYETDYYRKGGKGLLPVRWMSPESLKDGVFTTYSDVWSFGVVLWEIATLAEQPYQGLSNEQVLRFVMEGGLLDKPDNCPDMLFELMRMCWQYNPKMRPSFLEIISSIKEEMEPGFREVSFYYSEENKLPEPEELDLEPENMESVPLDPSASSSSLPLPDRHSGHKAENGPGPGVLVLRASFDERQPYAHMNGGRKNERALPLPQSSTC
UniProt Q99873: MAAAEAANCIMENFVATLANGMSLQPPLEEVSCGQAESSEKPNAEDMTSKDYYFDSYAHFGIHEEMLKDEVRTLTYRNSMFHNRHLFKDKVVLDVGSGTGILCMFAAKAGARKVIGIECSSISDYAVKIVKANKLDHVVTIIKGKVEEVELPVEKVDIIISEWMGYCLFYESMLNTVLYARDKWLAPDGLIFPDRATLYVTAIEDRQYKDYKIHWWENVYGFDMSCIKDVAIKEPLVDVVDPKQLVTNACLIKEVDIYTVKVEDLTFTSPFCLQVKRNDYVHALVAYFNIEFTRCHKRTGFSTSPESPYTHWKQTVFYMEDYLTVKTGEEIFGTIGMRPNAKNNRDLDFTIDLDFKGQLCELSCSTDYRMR

Legend:
[1] = target: insulin-like growth factor 1 receptor (human (endogenous in MCF-7)) (UniProt P08069); assay: co-IP; coimmunoprecipitation of IGF-1R and PRMT1 (Supplementary Fig. S2,b); precipitating antibody not shown
[2] = target: insulin-like growth factor 1 receptor (human (endogenous in MCF-7)) (UniProt P08069); assay: proximity ligation; fluorescent PLA on methanol-fixed MCF-7 cells with antibodies to the two endogenous proteins; with or without IGF-1; siRNA knock-downs or MS023 as controls

- binding [1]: binds
- binding [2]: binds
Substance: arginine methyltransferase PRMT1 (from UniProt Q99873 1-371) (enzyme)
